According to PMC9168989:
No constants are given. Whether binding was seen depends on the method and setting. Binding seen in cells or lysates may run through a third protein. Some entries that bind do so weakly or less than the wild type.

How the values were obtained:
[1] = target: Proliferating Cell Nuclear Antigen (PCNA), endogenous in HEK293T cells (human (endogenous in HEK293T)) (UniProt P12004); test: co-IP
[2] = target: FLAG-tagged SARS-CoV-2 membrane protein (M) (SARS-CoV-2) (UniProt P0DTC5); test: co-IP; […] (50 mM Tris-HCl pH 7.4, 150 mM NaCl, 1 mM EDTA, 1% Triton X-100); […]

Substance | binding [1] | binding [2]
FLAG-tagged SARS-CoV-2 membrane protein (M) (from UniProt P0DTC5 1-222) | binds | 
Proliferating Cell Nuclear Antigen (PCNA), endogenous in HEK293T cells (from UniProt P12004 1-261) |  | binds
